Source: article doi:10.1101/2022.09.22.509058
Results are given in words; binding and its absence hold for the method and conditions named. Binding calls can cover weak binding; strength is not graded here. Sequences can lack the tags named with a protein.

B1: MBP:OsSHR1 fusion protein (protein, UniProt Q8H2X8 1-602)
chain: MDTLFRLVSLQAASEQQQQQQQSASYNSRSTTSSGSRSSSHQTNASYSYYHHSSNSGGGGGGGGGYYYGGQQPPPSQYYYLEPYQEECGNAPHHQLYMDEDFSSSSSSRHFHHGARVQQQQPPASSTPTGTAPTPPLSTSSTAAGAGHGLFEAADLSFPPDLNLDFSSPASSSGGGTASSGAVGGGGGGRWASQLLLECARSVAARDSQRVQQLMWMLNELASPYGDVEQKLASYFLQGLFARLTASGPRTLRTLAAASDRNTSFDSTRRTALRFQELSPWSSFGHVAANGAILESFLEVAAAASSETQRFHILDLSNTFCTQWPTLLEALATRSADETPHLSITTVVSAAPSAPTAAVQRVMREIGQRMEKFARLMGVPFRFRAVHHSGDLAELDLDALDLREGGATTALAVNCVNSLRGVVPGRARRRDAFAASLRRLDPRVVTVVEEEADLVASDPDASSATEEGGDTEAAFLKVFGEGLRFFSAYMDSLEESFPKTSNERLALERGAGRAIVDLVSCPASESMERRETAASWARRMRSAGFSPVAFSEDVADDVRSLLRRYREGWSMREAGTDDSAAGAGVFLAWKEQPLVWASAWRP

Experiments:
[1] = target: T1, OsSHR2 fused with the DNA binding domain (pGBKT7) (rice (Oryza sativa L. japonica cultivar Nipponbare)) (UniProt Q75I13); assay: two-hybrid
T1 sequence: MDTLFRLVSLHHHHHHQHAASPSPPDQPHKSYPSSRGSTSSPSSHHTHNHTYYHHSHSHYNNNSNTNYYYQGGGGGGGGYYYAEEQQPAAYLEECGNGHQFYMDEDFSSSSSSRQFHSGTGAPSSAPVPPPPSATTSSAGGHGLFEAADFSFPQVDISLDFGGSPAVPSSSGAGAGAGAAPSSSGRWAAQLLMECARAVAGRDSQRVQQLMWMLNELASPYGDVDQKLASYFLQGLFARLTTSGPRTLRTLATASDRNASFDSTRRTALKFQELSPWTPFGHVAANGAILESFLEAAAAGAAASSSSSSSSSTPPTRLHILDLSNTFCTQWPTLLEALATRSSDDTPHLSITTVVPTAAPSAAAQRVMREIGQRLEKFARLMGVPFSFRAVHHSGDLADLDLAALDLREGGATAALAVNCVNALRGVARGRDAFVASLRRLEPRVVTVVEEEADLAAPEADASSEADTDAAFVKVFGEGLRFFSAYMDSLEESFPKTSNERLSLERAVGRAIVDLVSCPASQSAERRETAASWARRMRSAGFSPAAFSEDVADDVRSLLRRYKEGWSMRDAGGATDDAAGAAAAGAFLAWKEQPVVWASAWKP

[2] = target: T2, OsSHR1 fused with the DNA binding domain (pGBKT7) (rice (Oryza sativa L. japonica cultivar Nipponbare)) (UniProt Q8H2X8); assay: two-hybrid
T2 sequence: B1 chain

[3] = target: GST: OsIDD12 fusion protein (rice (Oryza sativa L. japonica cultivar Nipponbare)) (UniProt B7EZP0); assay: pull-down
[4] = target: GST: OsIDD13 fusion protein (rice (Oryza sativa L. japonica cultivar Nipponbare)); assay: pull-down

Molecule	binding [1]	binding [2]	binding [3]	binding [4]
OsIDD12 fused with the activation domain (pGADT7) (from UniProt B7EZP0)	binds	binds	–	–
OsIDD13 fused with the activation domain (pGADT7)	binds	binds	–	–
B1	–	–	binds	binds
